Data as given in PubChem BioAssay AID1259424 (University of Nebraska Medical Center, 2018).

- Test: 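Find knockdowns that reproduce the expression shifts seen after KSR1 loss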 (primary screen)
- Cells: human HCT116 colon cancer cells
- Reagents: siRNA pool against human genes, 50 nM
- Measured: 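Log2 levels of six mRNAs (branched-DNA multiplex), adjusted by two reference genes and the non-targeting median, then scored against the average KSR1 knockdown pattern as Pearson r and euclidean distance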
- Direction: mean correlation with KSR1 profile: higher = expression change more like KSR1 knockdown; mean distance from KSR1 profile: higher = expression change less like KSR1 knockdown
The deposit covers about 14,000 reagents; below is a random part of them. 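Higher correlation or smaller distance means closer resemblance to KSR1 loss; control wells, including KSR1 knockdowns, recur on many plates.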 Further read-outs or replicates are left out here. Not given: the time to read-out.

With KRT23, what does the deposit list?
mean correlation with KSR1 profile: 0.133; mean distance from KSR1 profile: 1.37

For CCRL2, what does the deposit list?
mean correlation with KSR1 profile: 0.488; mean distance from KSR1 profile: 1.64

For MEGF8, what was measured?
mean correlation with KSR1 profile: 0.168; mean distance from KSR1 profile: 1.56

For METTL3, what was measured?
mean correlation with KSR1 profile: -0.641; mean distance from KSR1 profile: 2.67

With TFPT, what does the deposit list?
mean correlation with KSR1 profile: -0.719; mean distance from KSR1 profile: 3.47

What is on record for FGL2?
mean correlation with KSR1 profile: -0.398; mean distance from KSR1 profile: 2.14

For OR2C3, how do the results read?
mean correlation with KSR1 profile: 0.423; mean distance from KSR1 profile: 1.94

How did the screen score ZNF275?
mean correlation with KSR1 profile: -0.582; mean distance from KSR1 profile: 1.58

How did the screen score HS3ST3A1?
mean correlation with KSR1 profile: -0.163; mean distance from KSR1 profile: 2.96

How did the screen score SNRNP35?
mean correlation with KSR1 profile: 0.096; mean distance from KSR1 profile: 2.06

How did the screen score GH2?
mean correlation with KSR1 profile: -0.411; mean distance from KSR1 profile: 2.45

What is on record for EAF2?
mean correlation with KSR1 profile: -0.688; mean distance from KSR1 profile: 1.63

Which result is listed for WDR19?
mean correlation with KSR1 profile: -0.313; mean distance from KSR1 profile: 1.6

How did the screen score JOSD1?
mean correlation with KSR1 profile: 0.0402; mean distance from KSR1 profile: 1.41

For ITGA4, what was measured?
mean correlation with KSR1 profile: 0.35; mean distance from KSR1 profile: 1.35

With PPFIA1, what was measured?
mean correlation with KSR1 profile: -0.141; mean distance from KSR1 profile: 4.53

For NKAPD1, how do the results read?
mean correlation with KSR1 profile: -0.514; mean distance from KSR1 profile: 2.29

Ordered by “mean distance from KSR1 profile” (descending): some entries from above.
WDR19 | mean correlation with KSR1 profile = -0.313; mean distance from KSR1 profile = 1.6
JOSD1 | mean correlation with KSR1 profile = 0.0402; mean distance from KSR1 profile = 1.41
ITGA4 | mean correlation with KSR1 profile = 0.35; mean distance from KSR1 profile = 1.35

Additional records:
What is on record for EMCN?
mean correlation with KSR1 profile: -0.254; mean distance from KSR1 profile: 2.11

For ZNF646, what was measured?
mean correlation with KSR1 profile: -0.019; mean distance from KSR1 profile: 2.12

What did the screen give for GAL3ST4?
mean correlation with KSR1 profile: 0.147; mean distance from KSR1 profile: 3.2

For GNAI2, what does the deposit list?
mean correlation with KSR1 profile: -0.468; mean distance from KSR1 profile: 1.17

With PAIP1, what does the deposit list?
mean correlation with KSR1 profile: -0.784; mean distance from KSR1 profile: 2.49

How did the screen score GABRR1?
mean correlation with KSR1 profile: -0.214; mean distance from KSR1 profile: 4.82

With VARS1, what was measured?
mean correlation with KSR1 profile: -0.406; mean distance from KSR1 profile: 2.09

What did the screen give for PARG?
mean correlation with KSR1 profile: -0.198; mean distance from KSR1 profile: 3.22

How did the screen score CPB2?
mean correlation with KSR1 profile: 0.919; mean distance from KSR1 profile: 1.53

What did the screen give for P4HB?
mean correlation with KSR1 profile: 0.355; mean distance from KSR1 profile: 1.75

What did the screen give for MARCO?
mean correlation with KSR1 profile: -0.317; mean distance from KSR1 profile: 2.12
